Source: the supplement of paper PMC6078165
Values are relative to the signal before dosing, not to a vehicle control; the signal also falls without drug.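 Fibroblast labels denote human fibroblasts, mainly primary ones from uterus (C12385, HUF), lung (H6013), bone (Hs27A), adrenal (HADF) and skin (WS1), plus mammary HMF and breast cancer-associated Hs343T. Cancer cells are basal-like or mesenchymal-like triple-negative breast cancer lines. A hit is a response shift exceeding 3x replicate standard deviation. The tissue of the other fibroblasts is not given here.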

Tested on: HCC1143
Experiment: relative JC-1 red fluorescence (viability) vs pre-drug, coculture with fibroblast (fraction); higher = more viable cancer cells
Procedure: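 JC-1 labelled TNBC cells cocultured 1:1 (1,500 cells each) with CellTrace Violet stained primary or stromal fibroblasts in 384-well plates in FluoroBrite medium, treated with one of 42 anticancer drugs at 0.1, 1, 10 or 100 uM. JC-1 red fluorescence (mitochondrial integrity in cancer cells only) was read by plate reader every 8 h for 72 h. Values are normalised to each well's pre-drug value. The stock of one drug was tenfold lower, so its dose labels may be too high.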

CC(C)C[C@H](NC(=O)[C@@H](COC(C)(C)C)NC(=O)[C@H](Cc1ccc(O)cc1)NC(=O)[C@H](CO)NC(=O)[C@H](Cc1c[nH]c2ccccc12)NC(=O)[C@H](Cc1cnc[nH]1)NC(=O)[C@@H]1CCC(=O)N1)C(=O)N[C@@H](CCCNC(=N)N)C(=O)N1CCC[C@H]1C(=O)NNC(N)=O [Goserelin]
relative JC-1 red fluorescence
Settings | 8 h | 16 h | 24 h | 32 h | 40 h | 48 h | 56 h | 64 h | 72 h
0.1 µM, coculture fibroblast: C12385 | 0.846 | 0.761 | 0.695 | 0.628 | 0.558 | 0.512 | 0.464 | 0.418 | 0.397
0.1 µM, coculture fibroblast: H6013 | 0.719 | 0.619 | 0.563 | 0.542 | 0.469 | 0.456 | 0.42 | 0.404 | 0.374
0.1 µM, coculture fibroblast: H6019 | 0.792 | 0.716 | 0.663 | 0.601 | 0.55 | 0.522 | 0.473 | 0.427 | 0.397
0.1 µM, coculture fibroblast: H6076 | 0.7906 | 0.798 | 0.748 | 0.691 | 0.648 | 0.621 | 0.591 | 0.566 | 0.573
0.1 µM, coculture fibroblast: H6231 | 0.809 | 0.803 | 0.747 | 0.633 | 0.658 | 0.625 | 0.581 | 0.547 | 0.517
0.1 µM, coculture fibroblast: HADF | 0.773 | 0.688 | 0.659 | 0.649 | 0.545 | 0.516 | 0.477 | 0.45 | 0.424
0.1 µM, coculture fibroblast: HCFa | 0.816 | 0.759 | 0.728 | 0.713 | 0.628 | 0.6 | 0.553 | 0.509 | 0.481
0.1 µM, coculture fibroblast: HCPF | 0.826 | 0.8 | 0.732 | 0.6473 | 0.624 | 0.587 | 0.547 | 0.514 | 0.495
0.1 µM, coculture fibroblast: HHSteC | 0.8106 | 0.713 | 0.67 | 0.624 | 0.543 | 0.519 | 0.463 | 0.433 | 0.384
0.1 µM, coculture fibroblast: HMF | 0.794 | 0.851 | 0.7811 | 0.67 | 0.676 | 0.638 | 0.598 | 0.562 | 0.525
0.1 µM, coculture fibroblast: HPFa | 0.8855 | 0.783 | 0.739 | 0.637 | 0.572 | 0.534 | 0.462 | 0.407 | 0.364
0.1 µM, coculture fibroblast: HUF | 0.846 | 0.754 | 0.71 | 0.63 | 0.569 | 0.543 | 0.487 | 0.454 | 0.424
0.1 µM, coculture fibroblast: Hs5 | 0.841 | 0.882 | 0.815 | 0.765 | 0.699 | 0.661 | 0.622 | 0.58 | 0.56
0.1 µM, coculture fibroblast: Hs27A | 0.715 | 0.614 | 0.574 | 0.586 | 0.461 | 0.439 | 0.388 | 0.356 | 0.338
0.1 µM, coculture fibroblast: Hs343T | 0.805 | 0.832 | 0.766 | 0.681 | 0.6439 | 0.603 | 0.552 | 0.523 | 0.501
0.1 µM, coculture fibroblast: WS1 | 0.8008 | 0.7338 | 0.6685 | 0.58 | 0.51 | 0.462 | 0.4114 | 0.369 | 0.338
1 µM, coculture fibroblast: C12385 | 0.849 | 0.795 | 0.737 | 0.651 | 0.581 | 0.547 | 0.502 | 0.465 | 0.448
1 µM, coculture fibroblast: H6013 | 0.78928 | 0.6979 | 0.6597 | 0.647 | 0.578 | 0.566 | 0.532 | 0.516 | 0.474
1 µM, coculture fibroblast: H6019 | 0.792 | 0.693 | 0.652 | 0.5913 | 0.543 | 0.525 | 0.48 | 0.431 | 0.394
1 µM, coculture fibroblast: H6076 | 0.785 | 0.751 | 0.705 | 0.679 | 0.645 | 0.638 | 0.603 | 0.586 | 0.596
1 µM, coculture fibroblast: H6231 | 0.8177 | 0.782 | 0.7053 | 0.635 | 0.612 | 0.58 | 0.538 | 0.511 | 0.482
1 µM, coculture fibroblast: HADF | 0.765 | 0.695 | 0.668 | 0.672 | 0.605 | 0.59 | 0.557 | 0.544 | 0.518
1 µM, coculture fibroblast: HCFa | 0.832 | 0.761 | 0.725 | 0.72 | 0.641 | 0.607 | 0.562 | 0.526 | 0.491
1 µM, coculture fibroblast: HCPF | 0.814 | 0.779 | 0.7098 | 0.664 | 0.643 | 0.616 | 0.582 | 0.552 | 0.542
1 µM, coculture fibroblast: HHSteC | 0.8 | 0.691 | 0.656 | 0.615 | 0.534 | 0.503 | 0.459 | 0.426 | 0.384
1 µM, coculture fibroblast: HMF | 0.817 | 0.742 | 0.684 | 0.681 | 0.608 | 0.596 | 0.569 | 0.546 | 0.53092
1 µM, coculture fibroblast: HPFa | 0.8974 | 0.817 | 0.7722 | 0.689 | 0.617 | 0.582 | 0.525 | 0.478 | 0.4316
1 µM, coculture fibroblast: HUF | 0.8788 | 0.788 | 0.723 | 0.643 | 0.589 | 0.561 | 0.508 | 0.474 | 0.439
1 µM, coculture fibroblast: Hs5 | 0.885 | 0.777 | 0.753 | 0.799 | 0.798 | 0.786 | 0.771 | 0.755 | 0.772
1 µM, coculture fibroblast: Hs27A | 0.7437 | 0.691 | 0.65 | 0.661 | 0.566 | 0.564 | 0.527 | 0.501 | 0.455
1 µM, coculture fibroblast: Hs343T | 0.7928 | 0.823 | 0.711 | 0.621 | 0.592 | 0.55 | 0.493 | 0.467 | 0.44
1 µM, coculture fibroblast: WS1 | 0.827 | 0.736 | 0.67 | 0.581 | 0.511 | 0.471 | 0.417 | 0.368 | 0.345
